# Patent publication US20090137577A1, “HETEROCYCLIC COMPOUNDS” (Pfizer Inc., priority 2007, published 2009)
# Chains of the proteins cited; added tags and fusions are not shown. Residues count along the entry.
# UniProt Q14416, 19-872 limits assumed: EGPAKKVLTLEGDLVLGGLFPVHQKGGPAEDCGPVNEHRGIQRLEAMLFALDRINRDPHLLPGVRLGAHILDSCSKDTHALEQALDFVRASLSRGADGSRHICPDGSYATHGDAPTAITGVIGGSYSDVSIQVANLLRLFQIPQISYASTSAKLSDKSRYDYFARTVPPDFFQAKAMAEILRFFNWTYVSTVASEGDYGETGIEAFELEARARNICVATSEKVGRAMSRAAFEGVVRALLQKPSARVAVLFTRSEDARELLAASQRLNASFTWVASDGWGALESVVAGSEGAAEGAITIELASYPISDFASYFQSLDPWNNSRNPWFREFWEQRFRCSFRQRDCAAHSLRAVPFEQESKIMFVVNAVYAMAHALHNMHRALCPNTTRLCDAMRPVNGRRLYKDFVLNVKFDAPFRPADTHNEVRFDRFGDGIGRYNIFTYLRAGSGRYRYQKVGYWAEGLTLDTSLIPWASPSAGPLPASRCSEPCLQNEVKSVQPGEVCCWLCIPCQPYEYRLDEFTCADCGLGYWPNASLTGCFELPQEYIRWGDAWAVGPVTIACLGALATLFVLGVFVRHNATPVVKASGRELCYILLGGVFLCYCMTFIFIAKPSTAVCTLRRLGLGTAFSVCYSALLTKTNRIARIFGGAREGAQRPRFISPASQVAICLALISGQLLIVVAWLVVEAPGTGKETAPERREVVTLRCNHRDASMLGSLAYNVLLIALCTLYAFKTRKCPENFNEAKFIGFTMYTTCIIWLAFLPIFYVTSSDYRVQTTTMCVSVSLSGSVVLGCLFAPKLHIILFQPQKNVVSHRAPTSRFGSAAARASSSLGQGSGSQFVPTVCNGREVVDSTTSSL
# Values joined by “and” are separate entries in the source; they are usually repeats but may differ in a detail not shown here. Equal values may be shown once. The match of structure and compound is tentative.
# Target: mGluR2 receptor (metabotropic glutamate receptor 2) (Homo sapiens, UniProt Q14416)
# Assay: mGluR2 potentiator screen (FLIPR, EC10-EC20 glutamate challenge);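 note: HEK cells stably expressing human mGluR2 with GL15 G protein, Fluo-4 calcium fluorescence read on FLIPR, compounds added before an EC10-EC20 glutamate challenge to detect potentiation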
# Assay type: cell-based
# Settings: read-out: mGluR 2 EC50 (geometric mean)
structure (smiles),measurement,value
C[C@@H]1CN(Cc2ccc(-c3ccc4c(c3)CCO4)cc2)C(=O)O1,EC50,0.0286 µM and 0.0353 µM
